Results reported in PubChem BioAssay AID248 (DTP/NCI, 2004).
The list does not hold the whole screen: it gathers tests that were run many times, whatever their T/C, doses with no T/C, and many T/C values between a quarter and a half above the control. Further doses and runs are listed elsewhere. T/C gives the treated animals as a percentage of the vehicle group. Some entries give survivors of the animals treated and no T/C: the source holds a T/C of zero for them, seemingly a mark for toxic or unscored doses. Some survivor counts are full or nearly so, which does not show that the dose was tolerated: the source hardly ever lists a survival T/C far under the control, and the zero likely stands for such cases as well. Survivors were counted at the toxicity check, usually on the fifth day, unless a day is given; later deaths do not show. Schedules are NCI's codes, read here as Q, the interval in days (D) or hours (H), X, the number of doses. Some entries hold several experiments; the values are given in rising order. Some schedules carry Z or #; the key to these is not given. Some structures stand for samples that the source files as different forms (salt, stereo form or complex); doses refer to the form tested. For survival time, the PubChem record calls one and a half times the control and up active, and a quarter to a half above the control has no call in these data; cut-offs in other NCI protocols can differ. Some T/C values are followed by the survivors on the day toxicity was checked, most often the fifth; where none is given, no animal had died by that day.

System: L1210 leukemia ip in BDF1 mice, survival T/C
Test: NCI In Vivo Anticancer Drug Screen. Data for tumor model L1210 Leukemia (intraperitoneal) in B6D2F1 (BDF1) mice
Settings: T/C endpoint: mean survival time, higher T/C = longer survival
[1] = dose: 200.0 mg/kg/injection, schedule: Q04DX003 (ip), vehicle: saline
[2] = dose: 400.0 mg/kg/injection, schedule: Q04DX003 (ip), vehicle: saline
[3] = dose: 400.0 mg/kg/injection, schedule: Q04DX002 (ip), vehicle: Klucel (hydroxypropylcellulose) (HPC)
[4] = dose: 200.0 mg/kg/injection, schedule: Q04DX003 (ip), vehicle: saline with Tween-80
[5] = dose: 400.0 mg/kg/injection, schedule: Q04DX003 (ip), vehicle: saline with Tween-80
[6] = dose: 150.0 mg/kg/injection, schedule: Q04DX003 (ip), vehicle: saline with Tween-80
[7] = dose: 300.0 mg/kg/injection, schedule: Q01DX001 (ip), vehicle: other
[8] = dose: 100.0 mg/kg/injection, schedule: Q04DX003 (ip), vehicle: saline with Tween-80

## CC1CCCC[N-]1.CC1CCCC[N-]1.N#C[S-].N#C[S-].[Cu] (configuration not stated)
dose: 80.0 mg/kg/injection, schedule: Q01DX001 (ip), vehicle: saline
  survivor count: 1 of 4
dose: 100.0 mg/kg/injection, schedule: Q01DX001 (ip), vehicle: saline
  survivor count: 1 of 4
dose: 200.0 mg/kg/injection, schedule: Q01DX001 (ip), vehicle: saline
  survivor count: 0 of 4
dose: 400.0 mg/kg/injection, schedule: Q01DX001 (ip), vehicle: saline
  survivor count: 0 of 4

## CCN(CC)CCCOC(=O)/C=C/c1c(C)[nH]c(=O)[nH]c1=O
dose: 100.0 mg/kg/injection, schedule: Q04DX003 (ip), vehicle: saline
  survivor count: 5 of 6
[1]
  survivor count: 1 of 6
[2]
  survivor count: 0 of 6

## CCCCCCCCP(=O)(N1CC1C)N1CC1C (configuration not stated)
[1]
  survivor count: 3 of 6
[2]
  survivor count: 0 of 6

## Cc1ccc([N+](=O)[O-])cc1NC(=O)Nc1onc(C)c1C
dose: 100.0 mg/kg/injection, schedule: Q01DX009 (ip), vehicle: Klucel (hydroxypropylcellulose) (HPC)
  survivor count: 3 of 3

## CC1=NCCCN=C(C)C(C)=NCCCN=C1C.[Br][Co][Br]
dose: 400.0 mg/kg/injection, schedule: Q04DX003 (ip), vehicle: Klucel (hydroxypropylcellulose) (HPC)
  survivor count: 0 of 6

## CC12CC3(C)CC(C)(C1)CC(NC(=O)N(CCF)N=O)(C2)C3
dose: 60.0 mg/kg/injection, schedule: Q01DX001 (ip), vehicle: other
  T/C: 127 % of control
dose: 93.0 mg/kg/injection, schedule: Q01DX001 (ip), vehicle: other
  T/C: 136 % of control
dose: 250.0 mg/kg/injection, schedule: Q01DX001 (ip), vehicle: other
  T/C: 141 % of control [4 of 5 alive]
dose: 500.0 mg/kg/injection, schedule: Q01DX001 (ip), vehicle: other
  survivor count: 3 of 6
dose: 750.0 mg/kg/injection, schedule: Q01DX001 (ip), vehicle: other
  survivor count: 1 of 6

## O=[N+]([O-])c1cc(O)ccc1Cl
dose: 200.0 mg/kg/injection, schedule: Q01DX009 (ip), vehicle: alcohol
  survivor count: 0 of 6
dose: 200.0 mg/kg/injection, schedule: Q04DX003 (ip), vehicle: alcohol
  survivor count: 3 of 6
dose: 300.0 mg/kg/injection, schedule: Q01DX009 (ip), vehicle: alcohol
  survivor count: 0 of 6
dose: 400.0 mg/kg/injection, schedule: Q04DX003 (ip), vehicle: alcohol
  survivor count: 1 of 6

## C[N+](C)(C)CCOC(=O)c1ccccc1CBr
dose: 12.5 mg/kg/injection, schedule: Q01DX009 (ip), vehicle: saline
  survivor count: 2 of 6
dose: 12.5 mg/kg/injection, schedule: Q04DX002 (ip), vehicle: Klucel (hydroxypropylcellulose) (HPC)
  survivor count: 1 of 3
dose: 25.0 mg/kg/injection, schedule: Q04DX002 (ip), vehicle: Klucel (hydroxypropylcellulose) (HPC)
  survivor count: 0 of 3
dose: 25.0 mg/kg/injection, schedule: Q04DX003 (ip), vehicle: saline
  survivor count: 0 of 6
dose: 50.0 mg/kg/injection, schedule: Q04DX002 (ip), vehicle: Klucel (hydroxypropylcellulose) (HPC)
  survivor count: 0 of 3
dose: 100.0 mg/kg/injection, schedule: Q04DX002 (ip), vehicle: Klucel (hydroxypropylcellulose) (HPC)
  survivor count: 0 of 3
dose: 200.0 mg/kg/injection, schedule: Q04DX002 (ip), vehicle: Klucel (hydroxypropylcellulose) (HPC)
  survivor count: 0 of 3
[3]
  survivor count: 0 of 3

## NCCCC(N)C(=O)NCCCCCCCCCCNC(=O)C(N)CCCN (configuration not stated)
dose: 100.0 mg/kg/injection, schedule: Q01DX Z (ip), vehicle: saline
  survivor count: 0 of 6
dose: 300.0 mg/kg/injection, schedule: Q01DX Z (ip), vehicle: saline
  survivor count: 0 of 6

## O=C(NC(=S)Nc1ccc(Cl)c(Cl)c1)c1ccc(Cl)cc1Cl
dose: 200.0 mg/kg/injection, schedule: Q04DX002 (ip), vehicle: saline with Tween-80
  survivor count: 3 of 3
dose: 400.0 mg/kg/injection, schedule: Q01DX001 (ip), vehicle: saline with Tween-80
  survivor count: 6 of 6

## O=Nc1ccc(-[n+]2ccccc2)c([N+](=O)[O-])c1
dose: 150.0 mg/kg/injection, schedule: Q01DX001 (ip), vehicle: saline
  survivor count: 3 of 6
dose: 300.0 mg/kg/injection, schedule: Q01DX001 (ip), vehicle: saline
  survivor count: 0 of 6

## C/C=C(\Br)C(=O)O
[4]
  survivor count: 1 of 6
dose: 400.0 mg/kg/injection, schedule: Q04DX002 (ip), vehicle: other
  survivor count: 1 of 3
[5]
  survivor count: 1 of 6

## CCC(=O)c1ccc(OC(=O)Nc2ccc(C)c(NC(=O)Oc3ccc(C(=O)CC)cc3)c2)cc1
dose: 400.0 mg/kg/injection, schedule: Q01DX009 (ip), vehicle: other
  survivor count: 3 of 6

## COc1cc2c(cc1OC)C1Cc3ccc(OC)c(OC)c3CN1CC2 (configuration not stated)
[3]
  survivor count: 1 of 3

## CC(C)(C)C(=O)CC(=O)C(C)(C)C.CC(C)(C)C(=O)CC(=O)C(C)(C)C.[Cu]
dose: 75.0 mg/kg/injection, schedule: Q04DX003 (ip), vehicle: saline with Tween-80
  survivor count: 5 of 6
[6]
  survivor count: 0 of 6
[7]
  survivor count: 2 of 6
dose: 300.0 mg/kg/injection, schedule: Q04DX003 (ip), vehicle: saline with Tween-80
  survivor count: 1 of 6

## Nc1nc(N)c(N=O)c(Nc2ccc(Br)cc2)n1
dose: 240.0 mg/kg/injection, schedule: Q01DX Z (ip), vehicle: methylcellulose (MC)
  survivor count: 3 of 6
dose: 360.0 mg/kg/injection, schedule: Q01DX Z (ip), vehicle: methylcellulose (MC)
  survivor count: 1 of 6

## FCCSc1ncnc2nc[nH]c12
dose: 44.0 mg/kg/injection, schedule: Q04DX003 (ip), vehicle: saline with Tween-80
  T/C: 136 % of control [5 of 6 alive]
dose: 66.0 mg/kg/injection, schedule: Q04DX003 (ip), vehicle: saline with Tween-80
  T/C: 125 [5 of 6 alive] and 137 % of control
[8]
  T/C: 132 % of control
[6]
  T/C: 128 % of control
[4]
  survivor count: 0 of 6
[5]
  survivor count: 0 of 6

## NCC(O)(c1ccccc1)c1ccccc1
dose: 150.0 mg/kg/injection, schedule: Q01DX001 (ip), vehicle: other
  survivor count: 0 of 6
[7]
  survivor count: 0 of 6

## CCN1C(=O)C2C3C=CC(C3)C2C1=O (configuration not stated)
[8]
  survivor count: 1 of 3 and 2 of 6
[4]
  survivor count: 1 of 6
[5]
  survivor count: 0 of 6

## CSC(C#N)NC(=O)c1ccc([N+](=O)[O-])cc1 (configuration not stated)
[3]
  T/C: 128 % of control [2 of 3 alive]
  survivor count: 0 of 3

## O=C(O)C1(C(=O)O)CCC2(CCCCC2)CC1
dose: 100.0 mg/kg/injection, schedule: Q01DX009 (ip), vehicle: water
  survivor count: 3 of 6
dose: 200.0 mg/kg/injection, schedule: Q01DX009 (ip), vehicle: water
  survivor count: 0 of 6
dose: 400.0 mg/kg/injection, schedule: Q01DX009 (ip), vehicle: water
  survivor count: 0 of 6

## O=Cc1[nH]c(=O)[nH]c(=O)c1Cc1ccc(Cl)cc1
[5]
  survivor count: 2 of 6
